In assay [1] the target is T1, Arabidopsis thaliana NFU4, mature form, Gal4 fusion for yeast two-hybrid (Arabidopsis thaliana) (UniProt Q9LIG6).
T1 sequence: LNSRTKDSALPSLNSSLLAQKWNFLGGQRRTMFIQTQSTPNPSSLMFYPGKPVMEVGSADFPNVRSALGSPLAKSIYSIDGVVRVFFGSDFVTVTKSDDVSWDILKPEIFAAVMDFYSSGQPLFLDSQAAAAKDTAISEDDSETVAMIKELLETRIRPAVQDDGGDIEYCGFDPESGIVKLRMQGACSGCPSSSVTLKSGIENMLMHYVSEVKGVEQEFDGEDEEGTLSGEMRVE
Put plainly: two-hybrid; binary Gal4-based Y2H in yeast strain CY306; NFU4/NFU5 (mature forms or separate domains) fused to the Gal4 DNA-binding domain, ISC components fused to the Gal4 activation domain; growth on -His-Trp-Leu medium at 30 °C with 2 or 5 mM 3-AT, read after 5 days.

Assay [2] concerns the target T2, Arabidopsis thaliana NFU5, mature form, Gal4 fusion for yeast two-hybrid (Arabidopsis thaliana) (UniProt Q9C8J2).
T2 sequence: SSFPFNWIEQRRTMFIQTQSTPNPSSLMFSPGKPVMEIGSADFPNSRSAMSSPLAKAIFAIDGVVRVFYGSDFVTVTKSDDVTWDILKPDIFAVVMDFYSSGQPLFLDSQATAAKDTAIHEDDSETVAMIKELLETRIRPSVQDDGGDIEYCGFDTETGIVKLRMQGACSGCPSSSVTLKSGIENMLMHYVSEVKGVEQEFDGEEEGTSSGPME
The assay is described as above.

These are yes or no findings as the source states them, for the method shown. Sequences can lack the tags named with a protein.

Binding data for one molecule are collected here from paper PMC7939391, “[4Fe-4S] cluster trafficking mediated by Arabidopsis mitochondrial ISCA and NFU proteins” (The Journal of Biological Chemistry, 2021).

B1: Arabidopsis thaliana GRXS15, mature form, Gal4 fusion for yeast two-hybrid (protein, UniProt Q8LBK6 38-169)
chain: SSTVPSDSDTHDDFKPTQKVPPDSTDSLKDIVENDVKDNPVMIYMKGVPESPQCGFSSLAVRVLQQYNVPISSRNILEDQELKNAVKSFSHWPTFPQIFIKGEFIGGSDIILNMHKEGELEQKLKDVSGNQD
As for B1, the binding result in assay [1] and in assay [2] was “no binding” each time.
